In publication PMC8552679 one finds binding data, which are given here for 23 molecules.

By UniProt entry, the sequences of proteins in these tests, tags left out. Where a name states a change or a piece, a line headed by the entry shows the natural chain unless it says otherwise.
UniProt A8BHA7: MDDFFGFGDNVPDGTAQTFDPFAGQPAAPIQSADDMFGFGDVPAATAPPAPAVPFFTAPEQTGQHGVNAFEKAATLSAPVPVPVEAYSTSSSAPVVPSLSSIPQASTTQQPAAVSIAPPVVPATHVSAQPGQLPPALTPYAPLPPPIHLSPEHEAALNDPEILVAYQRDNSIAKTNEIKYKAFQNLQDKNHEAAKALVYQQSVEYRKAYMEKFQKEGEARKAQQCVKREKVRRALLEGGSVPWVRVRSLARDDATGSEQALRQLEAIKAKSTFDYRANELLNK
UniProt A8BYC9: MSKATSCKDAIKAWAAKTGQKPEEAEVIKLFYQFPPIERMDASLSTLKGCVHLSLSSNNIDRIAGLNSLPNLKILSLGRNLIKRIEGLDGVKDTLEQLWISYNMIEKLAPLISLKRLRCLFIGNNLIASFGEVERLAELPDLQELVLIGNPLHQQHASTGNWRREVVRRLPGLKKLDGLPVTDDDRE
UniProt A8BZB0: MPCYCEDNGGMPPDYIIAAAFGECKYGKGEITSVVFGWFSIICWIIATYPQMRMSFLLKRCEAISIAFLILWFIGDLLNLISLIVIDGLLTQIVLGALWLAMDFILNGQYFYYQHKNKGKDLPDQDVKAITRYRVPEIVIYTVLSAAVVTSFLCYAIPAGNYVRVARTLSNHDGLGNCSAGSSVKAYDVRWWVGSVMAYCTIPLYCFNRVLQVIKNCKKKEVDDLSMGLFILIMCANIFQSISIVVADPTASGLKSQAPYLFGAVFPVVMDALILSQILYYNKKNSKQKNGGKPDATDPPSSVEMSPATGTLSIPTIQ
UniProt A8BL61: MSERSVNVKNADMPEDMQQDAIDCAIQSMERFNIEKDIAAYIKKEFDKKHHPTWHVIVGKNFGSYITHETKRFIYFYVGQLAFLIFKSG
UniProt A8BM82: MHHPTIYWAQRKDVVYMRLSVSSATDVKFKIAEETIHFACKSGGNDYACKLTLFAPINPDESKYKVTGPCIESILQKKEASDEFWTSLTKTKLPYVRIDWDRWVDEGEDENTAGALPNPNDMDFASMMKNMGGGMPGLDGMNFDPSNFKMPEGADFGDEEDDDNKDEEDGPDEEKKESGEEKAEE
UniProt A8BCC2: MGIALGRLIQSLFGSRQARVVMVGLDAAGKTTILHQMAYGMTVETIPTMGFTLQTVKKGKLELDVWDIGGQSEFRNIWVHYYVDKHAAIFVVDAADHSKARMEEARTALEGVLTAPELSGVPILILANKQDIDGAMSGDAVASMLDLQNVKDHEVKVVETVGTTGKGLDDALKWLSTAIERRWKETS
UniProt A8BDA9: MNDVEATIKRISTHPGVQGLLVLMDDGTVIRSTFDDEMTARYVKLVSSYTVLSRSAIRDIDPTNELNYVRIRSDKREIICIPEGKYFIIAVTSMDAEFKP
UniProt A0A644F565: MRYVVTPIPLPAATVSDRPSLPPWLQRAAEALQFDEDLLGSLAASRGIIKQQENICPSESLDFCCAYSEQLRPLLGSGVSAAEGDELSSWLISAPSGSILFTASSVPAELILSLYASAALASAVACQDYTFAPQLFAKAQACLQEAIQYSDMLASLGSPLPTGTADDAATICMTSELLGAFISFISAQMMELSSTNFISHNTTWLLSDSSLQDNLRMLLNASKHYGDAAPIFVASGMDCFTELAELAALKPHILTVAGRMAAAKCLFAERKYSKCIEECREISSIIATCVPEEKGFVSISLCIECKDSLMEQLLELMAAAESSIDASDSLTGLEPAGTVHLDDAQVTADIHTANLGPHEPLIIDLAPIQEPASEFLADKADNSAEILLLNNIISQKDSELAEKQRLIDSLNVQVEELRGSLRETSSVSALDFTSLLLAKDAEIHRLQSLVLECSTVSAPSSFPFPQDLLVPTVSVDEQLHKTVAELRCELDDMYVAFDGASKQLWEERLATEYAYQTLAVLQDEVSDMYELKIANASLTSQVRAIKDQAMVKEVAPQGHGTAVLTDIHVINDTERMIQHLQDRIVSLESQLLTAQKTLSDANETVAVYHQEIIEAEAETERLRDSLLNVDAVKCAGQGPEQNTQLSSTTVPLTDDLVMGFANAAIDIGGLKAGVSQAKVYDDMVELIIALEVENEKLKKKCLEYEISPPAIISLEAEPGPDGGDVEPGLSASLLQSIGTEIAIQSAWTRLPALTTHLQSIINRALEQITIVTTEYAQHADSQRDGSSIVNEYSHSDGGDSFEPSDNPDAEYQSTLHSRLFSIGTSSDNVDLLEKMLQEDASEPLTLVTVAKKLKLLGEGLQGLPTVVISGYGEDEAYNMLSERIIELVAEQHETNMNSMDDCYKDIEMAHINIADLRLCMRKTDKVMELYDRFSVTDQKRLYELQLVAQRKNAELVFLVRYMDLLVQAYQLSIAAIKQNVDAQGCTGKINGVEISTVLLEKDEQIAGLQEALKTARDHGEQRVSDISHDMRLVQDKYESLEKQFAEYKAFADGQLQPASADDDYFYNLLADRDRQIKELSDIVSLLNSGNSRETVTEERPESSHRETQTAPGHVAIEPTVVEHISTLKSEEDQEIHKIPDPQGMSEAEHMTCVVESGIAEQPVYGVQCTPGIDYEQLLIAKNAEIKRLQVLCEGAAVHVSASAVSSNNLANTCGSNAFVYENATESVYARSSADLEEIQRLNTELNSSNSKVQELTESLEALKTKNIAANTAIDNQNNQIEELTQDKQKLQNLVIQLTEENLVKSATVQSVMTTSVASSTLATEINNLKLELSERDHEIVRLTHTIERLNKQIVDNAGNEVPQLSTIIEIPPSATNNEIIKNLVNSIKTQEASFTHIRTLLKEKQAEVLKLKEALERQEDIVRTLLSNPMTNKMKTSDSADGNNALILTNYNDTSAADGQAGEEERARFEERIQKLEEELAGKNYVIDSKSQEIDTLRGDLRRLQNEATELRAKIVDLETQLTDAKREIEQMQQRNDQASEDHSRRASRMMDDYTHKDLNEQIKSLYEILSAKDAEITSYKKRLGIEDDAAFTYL
UniProt A8B9U8: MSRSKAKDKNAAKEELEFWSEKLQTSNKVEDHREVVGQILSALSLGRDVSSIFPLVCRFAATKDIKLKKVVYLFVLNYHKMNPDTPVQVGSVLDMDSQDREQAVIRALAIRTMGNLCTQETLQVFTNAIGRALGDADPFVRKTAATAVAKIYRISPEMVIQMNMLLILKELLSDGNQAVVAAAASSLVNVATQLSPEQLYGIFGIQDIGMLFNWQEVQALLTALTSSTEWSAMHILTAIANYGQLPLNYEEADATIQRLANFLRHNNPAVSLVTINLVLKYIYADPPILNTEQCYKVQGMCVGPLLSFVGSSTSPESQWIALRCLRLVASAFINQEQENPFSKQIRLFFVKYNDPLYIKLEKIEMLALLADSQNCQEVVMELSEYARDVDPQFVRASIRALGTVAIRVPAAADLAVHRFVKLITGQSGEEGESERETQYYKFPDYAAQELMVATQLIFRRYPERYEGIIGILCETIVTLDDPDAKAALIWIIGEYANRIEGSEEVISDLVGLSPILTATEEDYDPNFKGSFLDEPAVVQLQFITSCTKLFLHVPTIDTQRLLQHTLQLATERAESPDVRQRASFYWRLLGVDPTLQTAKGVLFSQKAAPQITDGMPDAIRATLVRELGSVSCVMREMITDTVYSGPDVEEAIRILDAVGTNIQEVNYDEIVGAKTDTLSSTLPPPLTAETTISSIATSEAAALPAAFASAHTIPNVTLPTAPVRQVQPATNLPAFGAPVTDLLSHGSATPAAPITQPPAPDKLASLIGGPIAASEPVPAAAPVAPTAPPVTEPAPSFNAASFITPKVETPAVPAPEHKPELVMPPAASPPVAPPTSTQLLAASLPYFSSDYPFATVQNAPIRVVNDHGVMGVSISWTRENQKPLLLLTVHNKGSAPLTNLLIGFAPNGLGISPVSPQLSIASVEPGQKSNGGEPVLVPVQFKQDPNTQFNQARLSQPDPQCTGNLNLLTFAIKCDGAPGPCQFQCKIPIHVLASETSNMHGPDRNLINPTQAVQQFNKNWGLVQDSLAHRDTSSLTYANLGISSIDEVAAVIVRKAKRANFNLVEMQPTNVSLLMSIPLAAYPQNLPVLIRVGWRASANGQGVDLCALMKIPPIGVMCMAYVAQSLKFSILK
UniProt E2RU45: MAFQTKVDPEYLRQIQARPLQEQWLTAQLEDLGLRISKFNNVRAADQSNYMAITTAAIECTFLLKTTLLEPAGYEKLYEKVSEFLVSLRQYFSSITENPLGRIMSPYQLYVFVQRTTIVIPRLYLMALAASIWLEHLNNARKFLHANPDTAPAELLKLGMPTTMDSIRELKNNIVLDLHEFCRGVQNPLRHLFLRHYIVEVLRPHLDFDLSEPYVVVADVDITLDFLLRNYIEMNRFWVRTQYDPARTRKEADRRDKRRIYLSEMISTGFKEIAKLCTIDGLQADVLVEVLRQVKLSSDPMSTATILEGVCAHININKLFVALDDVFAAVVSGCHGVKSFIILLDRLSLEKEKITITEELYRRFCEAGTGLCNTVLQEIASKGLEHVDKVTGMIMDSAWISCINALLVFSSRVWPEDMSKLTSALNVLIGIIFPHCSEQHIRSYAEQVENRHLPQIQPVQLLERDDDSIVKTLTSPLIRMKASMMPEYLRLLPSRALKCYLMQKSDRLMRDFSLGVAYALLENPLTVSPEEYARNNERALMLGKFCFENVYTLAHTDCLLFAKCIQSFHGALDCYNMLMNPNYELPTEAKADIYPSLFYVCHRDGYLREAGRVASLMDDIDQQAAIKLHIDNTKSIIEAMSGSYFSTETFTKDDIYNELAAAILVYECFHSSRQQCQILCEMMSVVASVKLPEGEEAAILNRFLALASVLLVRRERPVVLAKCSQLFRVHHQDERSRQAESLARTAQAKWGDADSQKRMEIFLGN
UniProt A8BGY8: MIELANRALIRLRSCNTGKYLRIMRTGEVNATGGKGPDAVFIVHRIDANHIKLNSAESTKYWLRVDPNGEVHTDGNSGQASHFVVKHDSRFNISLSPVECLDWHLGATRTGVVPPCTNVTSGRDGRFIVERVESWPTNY
UniProt A8B440: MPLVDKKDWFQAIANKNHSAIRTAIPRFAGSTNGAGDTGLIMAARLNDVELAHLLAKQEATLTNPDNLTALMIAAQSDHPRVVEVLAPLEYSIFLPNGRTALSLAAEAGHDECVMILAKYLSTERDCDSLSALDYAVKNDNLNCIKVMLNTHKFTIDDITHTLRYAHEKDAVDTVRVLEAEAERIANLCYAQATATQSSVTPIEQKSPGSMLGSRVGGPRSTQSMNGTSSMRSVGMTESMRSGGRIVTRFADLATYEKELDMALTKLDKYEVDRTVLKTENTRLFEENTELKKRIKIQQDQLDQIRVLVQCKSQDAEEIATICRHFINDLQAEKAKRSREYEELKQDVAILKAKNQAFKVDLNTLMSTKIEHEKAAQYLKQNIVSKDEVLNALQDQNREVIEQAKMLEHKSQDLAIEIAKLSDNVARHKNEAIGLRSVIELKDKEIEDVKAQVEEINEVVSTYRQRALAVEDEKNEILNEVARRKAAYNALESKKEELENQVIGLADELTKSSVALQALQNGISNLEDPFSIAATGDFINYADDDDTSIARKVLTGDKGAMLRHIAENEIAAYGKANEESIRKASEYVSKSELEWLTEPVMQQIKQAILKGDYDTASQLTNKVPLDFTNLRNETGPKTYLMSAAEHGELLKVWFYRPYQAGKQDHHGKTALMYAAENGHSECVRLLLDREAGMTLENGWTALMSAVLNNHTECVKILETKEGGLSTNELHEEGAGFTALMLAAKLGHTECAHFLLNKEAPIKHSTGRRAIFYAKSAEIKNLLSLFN
UniProt A8BAG8: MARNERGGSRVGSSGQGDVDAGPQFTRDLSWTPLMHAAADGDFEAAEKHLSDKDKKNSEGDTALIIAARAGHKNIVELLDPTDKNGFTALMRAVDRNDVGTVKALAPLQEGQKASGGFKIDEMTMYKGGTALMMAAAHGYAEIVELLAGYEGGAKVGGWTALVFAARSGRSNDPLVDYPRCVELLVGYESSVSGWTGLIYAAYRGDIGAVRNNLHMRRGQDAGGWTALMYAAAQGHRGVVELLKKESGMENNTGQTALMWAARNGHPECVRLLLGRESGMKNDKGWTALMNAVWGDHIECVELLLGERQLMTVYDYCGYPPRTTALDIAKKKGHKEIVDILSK
UniProt A0A644F1B7: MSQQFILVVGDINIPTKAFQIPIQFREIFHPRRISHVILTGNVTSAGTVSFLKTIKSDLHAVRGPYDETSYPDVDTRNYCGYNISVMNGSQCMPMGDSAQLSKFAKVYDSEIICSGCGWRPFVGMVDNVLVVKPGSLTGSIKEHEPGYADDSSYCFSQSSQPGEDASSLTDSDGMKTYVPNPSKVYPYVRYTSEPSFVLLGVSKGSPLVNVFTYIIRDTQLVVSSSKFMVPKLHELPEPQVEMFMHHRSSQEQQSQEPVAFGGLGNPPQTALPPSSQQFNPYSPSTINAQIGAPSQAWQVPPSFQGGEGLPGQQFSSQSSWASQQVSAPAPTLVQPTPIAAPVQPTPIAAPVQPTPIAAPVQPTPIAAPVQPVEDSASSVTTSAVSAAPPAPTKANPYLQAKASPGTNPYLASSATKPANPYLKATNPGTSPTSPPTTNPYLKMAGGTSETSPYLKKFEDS

Sequences and labels used below:
T1: Giardia lamblia actin (GlActin) (Giardia lamblia (endogenous in WB clone 6 trophozoites)), P51775
T1 chain: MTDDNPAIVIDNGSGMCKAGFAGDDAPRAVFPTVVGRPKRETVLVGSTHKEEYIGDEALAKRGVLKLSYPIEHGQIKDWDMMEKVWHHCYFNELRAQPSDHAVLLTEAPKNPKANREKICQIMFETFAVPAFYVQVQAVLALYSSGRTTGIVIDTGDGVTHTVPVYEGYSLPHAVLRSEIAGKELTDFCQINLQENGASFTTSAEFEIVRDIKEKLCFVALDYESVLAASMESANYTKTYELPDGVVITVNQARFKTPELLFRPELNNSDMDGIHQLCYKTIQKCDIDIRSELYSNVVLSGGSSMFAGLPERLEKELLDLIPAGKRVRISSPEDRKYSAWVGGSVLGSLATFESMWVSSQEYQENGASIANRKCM

B1: 14-3-3, E2RU97 1-248 (protein)
chain: MAEAFTREDYVFMAQLNENAERYDEMVETMRKISGMEGELSDKERNLLSVAYKNVIGPRRAAWRIVSSIEAKEKGRQKPNAKRIEQIRVYRQKIEKELSDICNDILKLLQEQFVPRSTNADAKVFYYKMQGDYYRYLAEYSSGEDKEKIAGSALNAYNSAFEISQQLPPTHPIRLGLALNFSVFYYEILASPDRACELARKAFDAAITDLDKLTEESYKDSTLIMQLLRDNLNLWVTDSAGDDNAEEK

No constants are given. Whether binding was seen depends on the method and setting. In cells and extracts the contact can be indirect. These calls come from enrichment with a bait or labelling near it, and not all partners need be listed.

The first assay deals with Giardia lamblia actin (GlActin) (Giardia lamblia (endogenous in WB clone 6 trophozoites)) (UniProt P51775). In words: affinity purification with mass spectrometry; wild-type Giardia trophozoites lysed in G-buffer then DSP, in F-buffer then DSP, or treated with 1 mM DSP before lysis in F-buffer; anti-GlActin antibody overnight at 4°C, protein A agarose, washes with 150 mM NaCl added, glycine pH 2.5 elution, SDS-PAGE, LC-MS/MS; three replicates.
Conditions: not given
Take “GL50803_4259 (clathrin light chain) (from UniProt A8BHA7)”: the binding result was “binds”.
For “GL50803_4383 (ankyrin repeat protein) (from UniProt A8BPT7)”, the binding entry was “binds”.
As to “GL50803_4463 (dynein light chain) (from UniProt A8BYC9)”, the binding result is “binds”.
Same read-out and setting: under “GL50803_5328 (sigma adaptin, AP-2 complex) (from UniProt E2RTT5)” stands “binds”.
The same measure, in the same setting: under “GL50803_8044 (7 transmembrane domains) (from UniProt A8BZB0)” stands “binds”.
The same measure, in the same setting: the entry for “GL50803_9030 (ankyrin repeat) (from UniProt A8BXV9)” is “binds”; for “GL50803_9848 (dynein light chain) (from UniProt A8BL61)” it is “binds”.
Regarding “GL50803_10038 (alpha-18 giardin) (from UniProt E2RU06)”, the binding result is “binds”.
The same measure, in the same setting: the entry for “GL50803_10429 (Wos2 protein) (from UniProt A8BM82)” is “binds”.
For “GL50803_13930 (Arf3) (from UniProt A8BCC2)”, the binding entry is “binds”.
For “GL50803_15124 (dynein light chain) (from UniProt A8BDA9)”, the binding entry was “binds”.
Turning to “GL50803_15591 (coiled-coil protein) (from UniProt A0A644F565)”, the binding result is on record as “binds”.
On the same count and under the same terms, the entry for “GL50803_17153 (alpha-11 giardin) (from UniProt Q4VPP2)” is “binds”; for “GL50803_17230 (gamma-giardin) (from UniProt E2RTN7)” it is “binds”.
“GL50803_21423 (beta adaptin) (from UniProt A8B9U8)”: the binding result is on record as “binds”.
On the same count and under the same terms, the entry for “GL50803_23833 (VPS35) (from UniProt E2RU45)” is “binds”.
On the same count and under the same terms, under “GL50803_24451 (FGF domain) (from UniProt A8BGY8)” stands “binds”; under “GL50803_27925 (ankyrin repeat) (from UniProt A8B440)”, “binds”; under “GL50803_33685 (armadillo repeat) (from UniProt A8BMP5)”, “binds”.
Turning to “GL50803_102813 (ankyrin repeat protein) (from UniProt A8BAG8)”, the binding result is given as “binds”.
Regarding “GL50803_103855 (VPS29) (from UniProt A0A644F1B7)”, the binding entry is listed as “binds”.
As to “GL50803_113622 (ankyrin repeat) (from UniProt A8BKY7)”, the binding result is “binds”.

The next assay has as its target T1, Giardia lamblia actin (GlActin) …. Described as above. The settings on record: remark: other sources report otherwise.
For B1, the binding result is on record as “binds”.
